# According to the supplement of paper PMC8728848:
# The other results are listed elsewhere or left out.
# B1: CLEC9a (Mus musculus), Q8BRU4 (protein)
# chain: MHAEEIYTSLQWDIPTSEASQKCQSPSKCSGAWCVVTMISCVVCMGLLATSIFLGIKFFQVSSLVLEQQERLIQQDTALVNLTQWQRKYTLEYCQALLQRSLHSGSDCSPCPHNWIQNGKSCYYVFERWEMWNISKKSCLKEGASLFQIDSKEEMEFISSIGKLKGGNKYWVGVFQDGISGSWFWEDGSSPLSDLLPAERQRSAGQICGYLKDSTLISDKCDSWKYFICEKKAFGSCI
# How the values were obtained:
# Assay in all cases: glycan array binding signal (z-score within array); higher = stronger binding
# Settings in all cases: glycan notation: IUPAC condensed, linker removed
# [1] = target: GlcNAc(b1-3)Gal(b1-4)GlcNAc(b1-3)Gal(b1-4)GlcNAc
# Procedure, shortened: (§1)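 Glycan array data were curated from 3228 arrays in the Consortium for Functional Glycomics database and kept only where the protein sequence was available. Glycan names were converted to IUPAC-condensed notation, and columns mapping to the same glycan were averaged. The binding signal is a within-array Z-score, averaged across arrays of the same protein sequence at different concentrations or buffers and across linkers. Negative Z-scores can be read as non-binding.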
# GlcNAc(b1-3)GalNAc = target: GlcNAc(b1-3)GalNAc
# Procedure, shortened: as §1
# GlcNAc(b1-3)Man = target: GlcNAc(b1-3)Man
# Procedure, shortened: as §1
# [2] = target: GlcNAc(b1-3)[GlcNAc(b1-4)][GlcNAc(b1-6)]GlcNAc
# Procedure, shortened: as §1
# [3] = target: GlcNAc(b1-3)[GlcNAc(b1-6)]Gal(b1-4)GlcNAc
# Procedure, shortened: as §1
# [4] = target: GlcNAc(b1-3)[GlcNAc(b1-6)]GalNAc
# Procedure, shortened: as §1
# [5] = target: GlcNAc(b1-4)Gal(b1-4)GlcNAc
# Procedure, shortened: as §1
# GlcNAc(b1-4)GlcNAc = target: GlcNAc(b1-4)GlcNAc
# Procedure, shortened: as §1
# [6] = target: GlcNAc(b1-4)GlcNAc(b1-4)GlcNAc
# Procedure, shortened: as §1
# [7] = target: GlcNAc(b1-4)GlcNAc(b1-4)GlcNAc(b1-4)GlcNAc(b1-4)GlcNAc
# Procedure, shortened: as §1
# [8] = target: GlcNAc(b1-4)GlcNAc(b1-4)GlcNAc(b1-4)GlcNAc(b1-4)GlcNAc(b1-4)GlcNAc
# Procedure, shortened: as §1
# [9] = target: GlcNAc(b1-4)[GlcNAc(b1-6)]GalNAc
# Procedure, shortened: as §1
# [10] = target: GlcNAc(b1-6)Gal(b1-4)GlcNAc
# Procedure, shortened: as §1
# GlcNAc(b1-6)GalNAc = target: GlcNAc(b1-6)GalNAc
# Procedure, shortened: as §1
# GlcNAc3Prop(b1-4)GlcNAc = target: GlcNAc3Prop(b1-4)GlcNAc
# Procedure, shortened: as §1
# [11] = target: GlcNAc6S(b1-3)Gal(b1-4)GlcNAc
# Procedure, shortened: as §1
# Kdn(a2-3)Gal(b1-3)GalNAc = target: Kdn(a2-3)Gal(b1-3)GalNAc
# Procedure, shortened: as §1
# Kdn(a2-3)Gal(b1-3)GlcNAc = target: Kdn(a2-3)Gal(b1-3)GlcNAc
# Procedure, shortened: as §1
# Kdn(a2-3)Gal(b1-4)Glc = target: Kdn(a2-3)Gal(b1-4)Glc
# Procedure, shortened: as §1
# Kdn(a2-3)Gal(b1-4)GlcNAc = target: Kdn(a2-3)Gal(b1-4)GlcNAc
# Procedure, shortened: as §1
# [12] = target: Kdn(a2-3)Gal(b1-4)[Fuc(a1-3)]GlcNAc
# Procedure, shortened: as §1
# Kdn(a2-6)Gal(b1-4)GlcNAc = target: Kdn(a2-6)Gal(b1-4)GlcNAc
# Procedure, shortened: as §1
# [13] = target: Man(a1-2)Man(a1-2)Man(a1-3)Man
# Procedure, shortened: as §1
# [14] = target: Man(a1-2)Man(a1-2)Man(a1-6)[Man(a1-3)]Man
# Procedure, shortened: as §1
# Man(a1-2)Man(a1-3)Man = target: Man(a1-2)Man(a1-3)Man
# Procedure, shortened: as §1
# [15] = target: Man(a1-2)Man(a1-3)[Man(a1-2)Man(a1-6)]Man
# Procedure, shortened: as §1
# [16] = target: Man(a1-2)Man(a1-3)[Man(a1-2)Man(a1-6)]Man(a1-6)[Man(a1-2)Man(a1-2)Man(a1-3)]Man
# Procedure, shortened: as §1
# [17] = target: Man(a1-2)Man(a1-3)[Man(a1-2)Man(a1-6)]Man(a1-6)[Man(a1-2)Man(a1-2)Man(a1-3)]Man(b1-4)GlcNAc(b1-4)GlcNAc
# Procedure, shortened: as §1
# [18] = target: Man(a1-2)Man(a1-3)[Man(a1-6)]Man(a1-6)[Man(a1-2)Man(a1-3)]Man(b1-4)GlcNAc(b1-4)GlcNAc
# Procedure, shortened: as §1
# [19] = target: Man(a1-2)Man(a1-6)[Man(a1-3)]Man(a1-6)[Man(a1-2)Man(a1-2)Man(a1-3)]Man
# Procedure, shortened: as §1
# [20] = target: Man(a1-2)Man(a1-6)[Man(a1-3)]Man(a1-6)[Man(a1-2)Man(a1-2)Man(a1-3)]Man(b1-4)GlcNAc(b1-4)GlcNAc
# Procedure, shortened: as §1
# Man(a1-3)[Man(a1-6)]Man = target: Man(a1-3)[Man(a1-6)]Man
# Procedure, shortened: as §1
# [21] = target: Man(a1-3)[Man(a1-6)]Man(a1-6)[Man(a1-2)Man(a1-3)]Man(b1-4)GlcNAc(b1-4)GlcNAc
# Procedure, shortened: as §1
# [22] = target: Man(a1-3)[Man(a1-6)]Man(a1-6)[Man(a1-3)]Man
# Procedure, shortened: as §1
# [23] = target: Man(a1-3)[Man(a1-6)]Man(a1-6)[Man(a1-3)]Man(b1-4)GlcNAc(b1-4)GlcNAc
# Procedure, shortened: as §1
# [24] = target: Man(a1-3)[Man(a1-6)]Man(b1-4)GlcNAc(b1-4)GlcNAc
# Procedure, shortened: as §1
# Man(a1-6)Man = target: Man(a1-6)Man
# Procedure, shortened: as §1
# Man(b1-4)GlcNAc = target: Man(b1-4)GlcNAc
# Procedure, shortened: as §1
# Neu5Ac(a2-3)Gal = target: Neu5Ac(a2-3)Gal
# Procedure, shortened: as §1
# [25] = target: Neu5Ac(a2-3)Gal(b1-3)GalNAc
# Procedure, shortened: as §1
# [26] = target: Neu5Ac(a2-3)Gal(b1-3)GalNAc(b1-3)Gal(a1-4)Gal(b1-4)Glc
# Procedure, shortened: as §1
# [27] = target: Neu5Ac(a2-3)Gal(b1-3)GalNAc(b1-4)[Neu5Ac(a2-3)]Gal(b1-4)Glc
# Procedure, shortened: as §1
# [28] = target: Neu5Ac(a2-3)Gal(b1-3)GalNAc6S
# Procedure, shortened: as §1
# [29] = target: Neu5Ac(a2-3)Gal(b1-3)GlcNAc
# Procedure, shortened: as §1
# [30] = target: Neu5Ac(a2-3)Gal(b1-3)GlcNAc(b1-2)Man(a1-3)[Neu5Ac(a2-3)Gal(b1-3)GlcNAc(b1-2)Man(a1-6)]Man(b1-4)GlcNAc(b1-4)GlcNAc
# Procedure, shortened: as §1
binder,measurement,setting,value
B1,glycan array binding signal (z-score),[1],-0.816
same,glycan array binding signal (z-score),GlcNAc(b1-3)GalNAc,-0.548
same,glycan array binding signal (z-score),GlcNAc(b1-3)Man,-0.506
same,glycan array binding signal (z-score),[2],-0.245
same,glycan array binding signal (z-score),[3],-1.89
same,glycan array binding signal (z-score),[4],-0.652
same,glycan array binding signal (z-score),[5],0.714
same,glycan array binding signal (z-score),GlcNAc(b1-4)GlcNAc,0.509
same,glycan array binding signal (z-score),[6],2.95
same,glycan array binding signal (z-score),[7],-1.04
same,glycan array binding signal (z-score),[8],0.022
same,glycan array binding signal (z-score),[9],-1
same,glycan array binding signal (z-score),[10],-2.84
same,glycan array binding signal (z-score),GlcNAc(b1-6)GalNAc,0.178
same,glycan array binding signal (z-score),GlcNAc3Prop(b1-4)GlcNAc,-1.05
same,glycan array binding signal (z-score),[11],-0.453
same,glycan array binding signal (z-score),Kdn(a2-3)Gal(b1-3)GalNAc,-0.362
same,glycan array binding signal (z-score),Kdn(a2-3)Gal(b1-3)GlcNAc,0.146
same,glycan array binding signal (z-score),Kdn(a2-3)Gal(b1-4)Glc,-0.577
same,glycan array binding signal (z-score),Kdn(a2-3)Gal(b1-4)GlcNAc,-0.883
same,glycan array binding signal (z-score),[12],0.426
same,glycan array binding signal (z-score),Kdn(a2-6)Gal(b1-4)GlcNAc,-1.11
same,glycan array binding signal (z-score),[13],0.802
same,glycan array binding signal (z-score),[14],0.862
same,glycan array binding signal (z-score),Man(a1-2)Man(a1-3)Man,-0.306
same,glycan array binding signal (z-score),[15],1.16
same,glycan array binding signal (z-score),[16],-0.272
same,glycan array binding signal (z-score),[17],-0.176
same,glycan array binding signal (z-score),[18],0.588
same,glycan array binding signal (z-score),[19],1.26
same,glycan array binding signal (z-score),[20],-1.22
same,glycan array binding signal (z-score),Man(a1-3)[Man(a1-6)]Man,0.958
same,glycan array binding signal (z-score),[21],-0.972
same,glycan array binding signal (z-score),[22],-0.819
same,glycan array binding signal (z-score),[23],0.482
same,glycan array binding signal (z-score),[24],-1.21
same,glycan array binding signal (z-score),Man(a1-6)Man,1.63
same,glycan array binding signal (z-score),Man(b1-4)GlcNAc,0.35
same,glycan array binding signal (z-score),Neu5Ac(a2-3)Gal,1.18
same,glycan array binding signal (z-score),[25],0.267
same,glycan array binding signal (z-score),[26],0.626
same,glycan array binding signal (z-score),[27],-1.05
same,glycan array binding signal (z-score),[28],-0.528
same,glycan array binding signal (z-score),[29],0.352
same,glycan array binding signal (z-score),[30],-0.763

# 4 entries from above, tab-delimited:
binder	measurement	setting	value
B1	glycan array binding signal (z-score)	[8]	0.022
same	glycan array binding signal (z-score)	Kdn(a2-3)Gal(b1-4)Glc	-0.577
same	glycan array binding signal (z-score)	[15]	1.16
same	glycan array binding signal (z-score)	[26]	0.626
